{
  "source": "patent US20260315500A1",
  "about": "“SOLID CANNABINOID COMPOSITION FOR PARENTERAL USE” (Bender Analytical Holding B.V., priority 2023, published 2026)",
  "origin": "cited, not measured here",
  "data": [
    {"smiles": "C=C(C)[C@@H]1CCC(C)=C[C@H]1c1c(O)cc(CCCCC)cc1O", "note": "[Cannabidiol]", "values": [
      {"measurement": "water solubility", "result": 0.0627, "unit": "µg/mL"}
    ]}
  ]
}
